# Data from patent publication CN116262786A.
# Results are given in words; binding and its absence hold for the method and conditions named. Some results given as binding are weak or reduced against the parent protein; the word gives no strength.
# Target: 食蟹猴FOLR1 (食蟹猴 (cynomolgus monkey))
# Experiment: ELISA, coated FOLR1 of each species 1 μg/mL, VHH-hFc titrated from 2 μg/mL, goat anti-human IgG-HRP
row,Binder,binding
1,"2D8-hFC1 (Fc fusion, human, not shown: a dimerising Fc or GST; small tags and cut ends) QVQLVESGGGSVQAGGSLRLSCAASDYTYRRYCMGWFRQAPGKEREKVAAIYLGDGTTYYTDSVKGRFTISQENAKNTIYLQMNNLKPEDTAMYYCAADRSGCSVTWSYSAFEDWGQGTQVTVSS",binds
2,"1D11-hFC1 (Fc fusion, human, not shown: a dimerising Fc or GST; small tags and cut ends) QVQLVESGGGSVQAGGSLRLSCAASGDTYSSACMDWFRQAPGKEREGVAGISSGGSTYYADSVKGRFTISRDNAKNTLYLQMNSLKPEDTAMYYCAARRVGRIPCRTMLPGLQDYWGQGTQVTVSS",binds
3,"4B10-hFC1 (Fc fusion, human, not shown: a dimerising Fc or GST; small tags and cut ends) QVQLVESGGGLVQAGGSLRLSCTASGFTFDDYAMGWFRQAPGKEREGVSCISWNGGSTFYADSVKGRFTIVRDNAKNTVYLEMNSLKPEDTAMYYCAALAYCSGGHWSPGDLSGGYWGQGTQVTVSS",binds
4,"2E5-hFC1 (Fc fusion, human, not shown: a dimerising Fc or GST; small tags and cut ends) QVQLVESGGGSVQAGGSLRLSCAASGYPYHRVSMGWFRQAPGKEREGVAGIYTGGLYTGGSMTYYADSVKGRFTISQDNARNTVYLQMNSLKPEDTAMYYCAATPQFLIGSGLLRPDKYNSWGQGTQVTVSS",binds
5,"3B3-hFC1 (Fc fusion, human, not shown: a dimerising Fc or GST; small tags and cut ends) QVQLVESGGGSVQAGGSLRLSCAASGYTYRRLSMGWFRQAPGKEREAVGGIYTGESMTYYADSVRGRFTISQDNAQNTVYLQMNSLKPEDTATYYCAATPQFLIGSGLLRPDKYDSWGQGTQVTVSS",binds
6,"4E11-hFC1 (Fc fusion, human, not shown: a dimerising Fc or GST; small tags and cut ends) QVQLVESGGGSVQAGGSLRLSCAVSGYTYSSNSMGWFRQAPGKEREGVAAIYTGGGSTYYADSVKGRFTISQDNAKNTVYLQMNSLKPEDTAMYYCAAGGPTWYDGSWSRGDEYTYWGQGTQVTVSS",binds
